## Screening data, single-dose tests

Protein sequences, listed by entry. Tags and fused reporters are not part of them. Residues count along the entry.
UniProt Q4DA54, 1-478: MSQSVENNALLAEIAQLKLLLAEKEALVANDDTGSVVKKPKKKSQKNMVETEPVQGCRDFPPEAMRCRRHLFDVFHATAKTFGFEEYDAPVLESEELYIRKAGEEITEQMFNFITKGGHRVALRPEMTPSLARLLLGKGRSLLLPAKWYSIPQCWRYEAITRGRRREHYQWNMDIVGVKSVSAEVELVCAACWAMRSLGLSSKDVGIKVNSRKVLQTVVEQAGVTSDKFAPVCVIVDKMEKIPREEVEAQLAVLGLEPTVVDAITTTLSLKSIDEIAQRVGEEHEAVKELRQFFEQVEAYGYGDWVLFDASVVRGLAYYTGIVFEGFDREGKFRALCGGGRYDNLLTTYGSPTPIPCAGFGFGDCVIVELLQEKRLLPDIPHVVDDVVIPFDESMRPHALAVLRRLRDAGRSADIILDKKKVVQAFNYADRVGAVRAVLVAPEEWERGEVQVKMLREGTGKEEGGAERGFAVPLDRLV
UniProt P9WNZ1, whole entry: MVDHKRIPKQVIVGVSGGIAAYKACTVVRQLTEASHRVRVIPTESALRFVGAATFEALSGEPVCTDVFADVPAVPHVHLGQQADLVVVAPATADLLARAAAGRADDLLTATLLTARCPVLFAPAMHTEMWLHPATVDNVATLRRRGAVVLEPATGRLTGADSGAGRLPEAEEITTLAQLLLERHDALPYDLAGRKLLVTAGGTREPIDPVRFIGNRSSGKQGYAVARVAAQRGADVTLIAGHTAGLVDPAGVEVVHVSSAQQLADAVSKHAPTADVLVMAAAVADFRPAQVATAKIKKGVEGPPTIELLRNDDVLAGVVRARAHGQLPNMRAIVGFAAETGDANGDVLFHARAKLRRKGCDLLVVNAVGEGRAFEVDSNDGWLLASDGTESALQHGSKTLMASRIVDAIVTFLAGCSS
UniProt P9WPC5, whole entry: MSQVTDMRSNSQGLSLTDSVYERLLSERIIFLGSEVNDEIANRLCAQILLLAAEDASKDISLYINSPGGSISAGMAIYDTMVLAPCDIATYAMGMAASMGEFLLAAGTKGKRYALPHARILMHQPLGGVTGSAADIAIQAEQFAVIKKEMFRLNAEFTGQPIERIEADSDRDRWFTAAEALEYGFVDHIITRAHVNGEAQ
UniProt P9WPC3, whole entry partner: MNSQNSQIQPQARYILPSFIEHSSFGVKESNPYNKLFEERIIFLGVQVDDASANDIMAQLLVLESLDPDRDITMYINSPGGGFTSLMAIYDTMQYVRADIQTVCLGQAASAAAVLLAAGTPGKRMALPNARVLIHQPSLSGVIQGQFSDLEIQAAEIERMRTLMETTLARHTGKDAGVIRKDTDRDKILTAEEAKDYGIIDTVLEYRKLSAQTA
UniProt Q8IDJ8, 1-583: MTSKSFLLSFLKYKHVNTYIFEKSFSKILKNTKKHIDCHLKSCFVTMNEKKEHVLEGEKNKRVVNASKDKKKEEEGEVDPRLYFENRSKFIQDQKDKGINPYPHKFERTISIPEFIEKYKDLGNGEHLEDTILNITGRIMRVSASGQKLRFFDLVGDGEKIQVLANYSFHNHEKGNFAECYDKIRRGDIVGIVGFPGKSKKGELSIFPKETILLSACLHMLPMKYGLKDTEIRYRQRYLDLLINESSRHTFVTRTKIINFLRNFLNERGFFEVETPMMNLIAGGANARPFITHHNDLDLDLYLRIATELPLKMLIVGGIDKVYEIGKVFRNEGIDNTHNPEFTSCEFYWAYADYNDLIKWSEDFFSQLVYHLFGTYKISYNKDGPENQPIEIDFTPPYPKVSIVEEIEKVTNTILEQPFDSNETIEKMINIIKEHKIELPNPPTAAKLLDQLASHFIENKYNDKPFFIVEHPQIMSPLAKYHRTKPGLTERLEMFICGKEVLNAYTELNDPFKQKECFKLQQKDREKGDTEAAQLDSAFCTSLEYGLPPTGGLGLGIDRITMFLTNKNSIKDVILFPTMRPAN

Measurements from “University of Dundee, Small-Polar-MMV Screening Library” (2021), ChEMBL document CHEMBL3988442.

A: 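Cell assay of Leishmania donovani living inside macrophages; the read-out is not stated. Concentration: 30 µM. Direction is inferred from retests: higher values go with stronger inhibition. Of about 69,000 compounds tested this way, about 1,000 (1.5%) reached 50% or more in at least one test.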
B: 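Histidine-tRNA ligase, Trypanosoma cruzi CL Brener (UniProt Q4DA54). Enzyme assay of histidyl-tRNA synthetase; the read-out is not stated. Tested at 30 µM. Direction is inferred from retests: higher values go with stronger inhibition. Of about 69,000 compounds tested this way, about 31 (0.045%) reached 50% or more in at least one test.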
C: 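Enzyme assay of CoaBC with a phosphate dye (Biomol Green) read at 650 nm. Target: Coenzyme A biosynthesis protein CoaBC, Mycobacterium tuberculosis (UniProt P9WNZ1). Tested at 30 µM. Higher reads as stronger inhibition, judged from the few compounds that gave an IC50. Most strong results did not repeat in a second test. About 67,000 compounds were tested under these conditions; 0.06% (about 40) showed 50% or more at least once.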
D: 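Protease assay of ClpP1P2, read by the AMC dye that it sets free. Target: ClpP1P2, Mycobacterium tuberculosis (UniProt P9WPC5 and UniProt P9WPC3). Tested at 50 µM. Higher reads as stronger inhibition, judged from the few compounds that gave an IC50. Most other retested compounds had strongly negative values. About 69,000 compounds were tested under these conditions; 0.015% (about 10) showed 50% or more at least once.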
E: 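Enzyme assay of the cytosolic lysyl-tRNA synthetase in 384-well plates, read by luminescence. Target: Lysine-tRNA ligase, Plasmodium falciparum 3D7 (UniProt Q8IDJ8). Concentration: 30 µM. Direction is inferred from only a few compounds that gave an IC50; most scored high, so higher reads as stronger inhibition. Size under these conditions: about 69,000 compounds, about 49 of them at 50% or above in at least one test.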

Values are the deposited “Percent Effect”, in %. The record does not define 0% and 100%; most values in the screen are far below 50% and negative numbers occur (in some assays of this library far below -100). Compounds were drawn at random from those tested, without regard to their results. Two or more numbers in one place are separate tests of the same structure; such repeats can differ widely.

* [H][C@@]12CC[C@H](Oc3ccccc3)[C@]1([H])CN(C(=O)CN(C)C)C2 : A: -1.283% & 5.809%
* COCCO[C@H]1CCN(c2cc(OC)ncn2)[C@H]1Cc1cccnc1.O=C(O)C(F)(F)F : A: 9.447%
* CC(C)c1n[nH]c(C2CN(C(=O)Cn3ccccc3=O)CCO2)n1 (centres undefined) : A: 18.93%; B: 4.871%; C: 5.342%; D: 1.793%; E: 0.3857%
* N#CC1CCN(C(=O)CN2CC(c3ccccc3)CC2=O)CC1 (centres undefined) : A: -3.578%; B: 0.8696%; C: -13.19%; D: -8.149%; E: 0.03857%
* CC(C)Cn1nc(-c2ccc(C(=O)O)cc2)cc1-c1ccc(F)cc1 : A: 41.19%; B: -1.13%; C: 3.874%; D: -6.594%; E: -0.4679%
* O=S(=O)(N1CCOCC1)N1CCCC(c2ccccn2)C1 (centres undefined) : A: -1.58%; B: 8.812%; C: -9.569%; D: 1.102%; E: 0.4698%
* Cc1noc(C)c1CN1CC[C@@H](OCC2CC2)[C@@H](Cc2ccccc2)C1 : B: 3.825%; C: 6.736%; D: 1.534%; E: -0.5362%
* COc1ncccc1NC(=O)c1cccc(C)n1 : A: 22.73%; B: 3.053%; C: -0.7772%; D: 21.88%; E: 0.9612%
* CCCn1c(C)c(CC(=O)NC(C)(C)CO)c2c1CC(C)(C)CC2=O : A: -1.191%; B: 4.036%; C: -4.569%; D: -14.68%; E: 5.816%
* O=C(NCc1cccc(N2CC=CC2)c1)NCC(F)(F)F : A: 17.4%; B: 5.319%; C: 8.894%; D: -3.946%; E: 4.537%
* CC(C)N(C)Cc1nnc2n1CCN(CC1CC1)CC2.O=C(O)C(F)(F)F.O=C(O)C(F)(F)F : A: 5.219% & 3.539%
* CN(C)CCn1c2c(ccc1=O)CCN(C(=O)c1cccs1)CC2 : B: 2.804%; C: -7.16%; D: -23.92%; E: 1.134%
* Cc1nnc(C(C)Nc2cccc(COCCOC(C)C)c2)o1 (centres undefined) : A: -1.706%; B: 1.807%; C: 7.195%; D: -0.07376%; E: -3.81%
* O=C(O)C(F)(F)F.O=C(O)C(F)(F)F.[H][C@@]12CCCO[C@]1([H])[C@@H](N(C)Cc1cncnc1)CN2CC1CC1 : A: 5.337%
* Cc1ccccc1CC(C)(C)NC(=O)c1cccc(OCC(N)=O)c1 : A: 17.9%; B: 4.433%; C: 3.165%; D: -0.421%; E: 9.152%
* CCc1nc2n(n1)CC(NCc1nc(Cc3ccccc3)no1)CC2 (centres undefined) : A: 4.812%; B: 2.312%; C: 0.6386%; D: -10.48%; E: 0.7361%
* COc1ccc2c(c1)CN(C)C(=O)CCN2CC(O)C(F)(F)F (centres undefined) : A: -6.131%; B: -6.742%; C: 0%; D: 10.53%; E: 5.261%
* COc1ccc(F)cc1CSCC(=O)N(C)C1CC1 : A: 17.59%; B: 6.077%; C: -0.4577%; D: -9.306%; E: 1.82%
* CN(C)C(=O)c1cccc(CN2CCN(CC(O)C(C)(C)C)CC2)c1 (centres undefined) : A: 2.729%; B: 6.433%; C: 5.612%; D: -11.48%; E: 0.3295%
* c1ccc(-c2noc3c2CN(CC2CC2)CC3)cc1 : A: 5.584%; B: 7.438%; C: -8.742%; D: -5.772%; E: 2.075%
* Cc1cnn(C2CCCN(C(=O)c3cccc4c3OCO4)C2)c1 (centres undefined) : A: 23.19%; B: 2.579%; C: 9.814%; D: 9.367%; E: -0.9229%
* O=C(NCCC1CN(Cc2c[nH]cn2)CCO1)c1ccccc1O (centres undefined) : A: -21.67%; B: -1.19%; C: -1.961%; D: -0.7736%; E: 2.812%
* O=C(N1CCCC1)N1CCC2(CCN(Cc3ccccn3)C2=O)C1 (centres undefined) : B: 2.4%; C: 4.034%; D: -7.14%; E: 11.39%
* CC(c1cccc(-c2ccc(C(=O)O)cc2Cl)c1)N(C)C (centres undefined) : A: 35.54%; B: 4.972%; C: 10.07%; D: 1.914%; E: -0.2441%

Some entries from above, unchanged:

{"compound": "CCc1nc2n(n1)CC(NCc1nc(Cc3ccccc3)no1)CC2", "stereo": "centres undefined", "A": 4.812, "B": 2.312, "C": 0.6386, "D": -10.48, "E": 0.7361}
{"compound": "N#CC1CCN(C(=O)CN2CC(c3ccccc3)CC2=O)CC1", "stereo": "centres undefined", "A": -3.578, "B": 0.8696, "C": -13.19, "D": -8.149, "E": 0.03857}
{"compound": "O=C(O)C(F)(F)F.O=C(O)C(F)(F)F.[H][C@@]12CCCO[C@]1([H])[C@@H](N(C)Cc1cncnc1)CN2CC1CC1", "A": 5.337}